Source: the supplement of paper PMC7666118
Some of the results follow.

Chains of the proteins cited; added tags and fusions are not shown. Lines headed by an entry give the natural chain unless they say otherwise; changes in a name come on top.
UniProt Q8IXI2: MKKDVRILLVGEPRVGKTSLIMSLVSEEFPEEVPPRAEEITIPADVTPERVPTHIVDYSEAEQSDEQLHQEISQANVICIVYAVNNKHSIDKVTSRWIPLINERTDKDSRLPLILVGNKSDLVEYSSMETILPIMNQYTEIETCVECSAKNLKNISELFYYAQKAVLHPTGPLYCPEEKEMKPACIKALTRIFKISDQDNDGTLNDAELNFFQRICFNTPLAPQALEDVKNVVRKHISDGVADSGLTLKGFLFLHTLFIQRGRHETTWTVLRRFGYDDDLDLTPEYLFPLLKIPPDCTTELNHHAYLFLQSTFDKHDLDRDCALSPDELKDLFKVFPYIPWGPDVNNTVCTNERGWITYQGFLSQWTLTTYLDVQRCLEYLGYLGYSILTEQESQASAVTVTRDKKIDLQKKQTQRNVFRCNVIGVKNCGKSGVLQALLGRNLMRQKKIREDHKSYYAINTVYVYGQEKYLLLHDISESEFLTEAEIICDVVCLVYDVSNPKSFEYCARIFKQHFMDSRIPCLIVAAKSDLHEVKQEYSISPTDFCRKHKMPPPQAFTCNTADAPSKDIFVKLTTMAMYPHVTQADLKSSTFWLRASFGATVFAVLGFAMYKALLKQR
UniProt Q9UL26: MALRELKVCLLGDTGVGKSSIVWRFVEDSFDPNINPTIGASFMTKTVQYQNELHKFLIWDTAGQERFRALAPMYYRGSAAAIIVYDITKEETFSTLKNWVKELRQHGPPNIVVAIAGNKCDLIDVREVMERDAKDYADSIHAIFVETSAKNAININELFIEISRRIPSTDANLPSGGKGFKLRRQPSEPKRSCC
UniProt Q9BW83: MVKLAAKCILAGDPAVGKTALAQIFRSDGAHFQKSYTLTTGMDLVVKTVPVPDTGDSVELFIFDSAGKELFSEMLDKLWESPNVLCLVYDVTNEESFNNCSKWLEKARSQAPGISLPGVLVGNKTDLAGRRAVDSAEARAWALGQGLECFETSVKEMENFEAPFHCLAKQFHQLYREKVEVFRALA
UniProt Q9Y3T6: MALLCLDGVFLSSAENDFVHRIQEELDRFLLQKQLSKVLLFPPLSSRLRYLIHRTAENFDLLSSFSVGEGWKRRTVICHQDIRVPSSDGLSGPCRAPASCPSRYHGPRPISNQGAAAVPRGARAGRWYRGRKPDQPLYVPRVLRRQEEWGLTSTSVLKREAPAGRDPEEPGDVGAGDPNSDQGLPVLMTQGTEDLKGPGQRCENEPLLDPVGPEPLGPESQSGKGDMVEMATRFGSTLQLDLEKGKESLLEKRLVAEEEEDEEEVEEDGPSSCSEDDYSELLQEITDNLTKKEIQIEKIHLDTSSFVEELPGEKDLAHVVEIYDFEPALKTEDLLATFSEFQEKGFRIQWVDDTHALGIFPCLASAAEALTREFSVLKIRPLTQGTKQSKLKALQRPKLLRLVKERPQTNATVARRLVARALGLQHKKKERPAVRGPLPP
UniProt Q9H477: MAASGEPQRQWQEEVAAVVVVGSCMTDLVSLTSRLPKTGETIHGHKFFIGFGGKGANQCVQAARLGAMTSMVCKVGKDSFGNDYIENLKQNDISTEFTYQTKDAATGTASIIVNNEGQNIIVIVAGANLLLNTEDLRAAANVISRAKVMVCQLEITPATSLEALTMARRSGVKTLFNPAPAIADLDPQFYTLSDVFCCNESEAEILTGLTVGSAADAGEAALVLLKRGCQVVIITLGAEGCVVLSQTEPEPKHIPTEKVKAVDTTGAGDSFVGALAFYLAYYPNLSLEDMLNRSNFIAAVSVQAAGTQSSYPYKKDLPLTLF
UniProt Q14671: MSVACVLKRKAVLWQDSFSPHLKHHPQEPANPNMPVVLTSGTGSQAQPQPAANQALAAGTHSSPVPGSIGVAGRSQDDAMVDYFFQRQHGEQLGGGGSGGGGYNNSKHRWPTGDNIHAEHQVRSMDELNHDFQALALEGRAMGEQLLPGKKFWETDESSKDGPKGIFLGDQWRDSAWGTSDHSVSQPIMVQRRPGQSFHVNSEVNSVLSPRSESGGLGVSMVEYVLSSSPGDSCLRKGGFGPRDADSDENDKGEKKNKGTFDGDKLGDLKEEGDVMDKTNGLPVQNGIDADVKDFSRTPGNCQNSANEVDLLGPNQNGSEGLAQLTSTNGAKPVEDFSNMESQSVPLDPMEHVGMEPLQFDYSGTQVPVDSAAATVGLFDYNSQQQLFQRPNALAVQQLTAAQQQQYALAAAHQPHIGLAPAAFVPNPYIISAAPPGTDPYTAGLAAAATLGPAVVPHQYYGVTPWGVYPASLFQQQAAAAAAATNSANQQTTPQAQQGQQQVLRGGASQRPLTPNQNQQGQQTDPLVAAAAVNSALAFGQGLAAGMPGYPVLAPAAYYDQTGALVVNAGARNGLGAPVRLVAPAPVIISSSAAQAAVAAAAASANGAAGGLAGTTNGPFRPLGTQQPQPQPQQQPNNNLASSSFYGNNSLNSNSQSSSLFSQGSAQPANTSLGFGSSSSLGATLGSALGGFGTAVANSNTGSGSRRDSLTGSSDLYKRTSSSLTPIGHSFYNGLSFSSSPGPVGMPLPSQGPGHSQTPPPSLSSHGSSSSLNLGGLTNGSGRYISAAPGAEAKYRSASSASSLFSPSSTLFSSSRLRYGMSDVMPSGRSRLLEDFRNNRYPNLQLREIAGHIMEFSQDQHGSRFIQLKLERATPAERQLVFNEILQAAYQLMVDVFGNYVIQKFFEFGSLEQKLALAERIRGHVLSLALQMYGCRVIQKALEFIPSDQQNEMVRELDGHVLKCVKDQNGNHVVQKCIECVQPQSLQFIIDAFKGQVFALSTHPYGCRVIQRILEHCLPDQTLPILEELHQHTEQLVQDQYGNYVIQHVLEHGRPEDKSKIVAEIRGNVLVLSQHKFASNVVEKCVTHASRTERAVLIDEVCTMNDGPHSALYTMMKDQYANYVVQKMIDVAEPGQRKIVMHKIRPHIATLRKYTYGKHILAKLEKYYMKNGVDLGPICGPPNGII
UniProt Q5W0B1: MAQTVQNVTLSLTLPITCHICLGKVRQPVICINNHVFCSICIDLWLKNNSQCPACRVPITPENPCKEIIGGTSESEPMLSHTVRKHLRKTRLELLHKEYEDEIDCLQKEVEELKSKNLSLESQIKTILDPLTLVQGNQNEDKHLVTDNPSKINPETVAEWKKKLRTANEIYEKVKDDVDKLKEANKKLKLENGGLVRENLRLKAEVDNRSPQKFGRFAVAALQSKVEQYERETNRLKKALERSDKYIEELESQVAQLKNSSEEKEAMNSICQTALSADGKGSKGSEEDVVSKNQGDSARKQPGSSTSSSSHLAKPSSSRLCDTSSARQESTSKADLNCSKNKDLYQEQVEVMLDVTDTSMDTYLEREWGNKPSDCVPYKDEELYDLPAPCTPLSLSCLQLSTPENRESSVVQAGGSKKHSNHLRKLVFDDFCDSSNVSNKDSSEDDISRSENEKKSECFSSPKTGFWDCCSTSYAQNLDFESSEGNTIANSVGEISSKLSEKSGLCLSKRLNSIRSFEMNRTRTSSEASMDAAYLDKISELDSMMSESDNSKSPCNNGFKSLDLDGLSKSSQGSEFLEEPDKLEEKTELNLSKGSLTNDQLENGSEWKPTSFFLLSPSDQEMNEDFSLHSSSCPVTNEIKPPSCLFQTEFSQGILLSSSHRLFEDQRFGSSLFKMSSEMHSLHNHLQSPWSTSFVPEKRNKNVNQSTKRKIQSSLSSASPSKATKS
UniProt Q9Y606: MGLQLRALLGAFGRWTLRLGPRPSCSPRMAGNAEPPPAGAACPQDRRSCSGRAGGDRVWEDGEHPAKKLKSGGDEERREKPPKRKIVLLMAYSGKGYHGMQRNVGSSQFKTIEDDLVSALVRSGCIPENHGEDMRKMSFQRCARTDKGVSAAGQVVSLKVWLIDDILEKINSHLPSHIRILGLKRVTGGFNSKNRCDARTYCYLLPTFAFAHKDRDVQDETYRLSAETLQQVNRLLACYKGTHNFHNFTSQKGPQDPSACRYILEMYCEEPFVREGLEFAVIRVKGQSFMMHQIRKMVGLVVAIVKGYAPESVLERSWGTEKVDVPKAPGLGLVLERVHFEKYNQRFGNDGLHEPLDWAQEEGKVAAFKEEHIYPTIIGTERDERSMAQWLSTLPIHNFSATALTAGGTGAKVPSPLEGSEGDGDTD
UniProt Q9NRW1: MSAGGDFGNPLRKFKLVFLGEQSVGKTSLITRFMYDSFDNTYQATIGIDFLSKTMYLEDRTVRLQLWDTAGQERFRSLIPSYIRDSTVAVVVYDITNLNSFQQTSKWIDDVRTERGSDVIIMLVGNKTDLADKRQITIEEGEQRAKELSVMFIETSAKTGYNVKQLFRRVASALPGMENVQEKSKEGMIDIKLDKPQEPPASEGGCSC
UniProt P40938, whole entry: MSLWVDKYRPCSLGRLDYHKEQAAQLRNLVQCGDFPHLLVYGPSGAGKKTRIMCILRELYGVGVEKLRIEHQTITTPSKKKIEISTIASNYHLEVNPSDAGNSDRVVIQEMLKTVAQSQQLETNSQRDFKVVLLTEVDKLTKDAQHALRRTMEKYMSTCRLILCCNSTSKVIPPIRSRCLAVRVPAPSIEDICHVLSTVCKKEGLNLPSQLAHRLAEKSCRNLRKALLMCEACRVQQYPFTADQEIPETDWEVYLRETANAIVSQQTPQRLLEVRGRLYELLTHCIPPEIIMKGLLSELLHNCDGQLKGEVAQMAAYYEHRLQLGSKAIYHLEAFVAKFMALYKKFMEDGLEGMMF
UniProt Q15907: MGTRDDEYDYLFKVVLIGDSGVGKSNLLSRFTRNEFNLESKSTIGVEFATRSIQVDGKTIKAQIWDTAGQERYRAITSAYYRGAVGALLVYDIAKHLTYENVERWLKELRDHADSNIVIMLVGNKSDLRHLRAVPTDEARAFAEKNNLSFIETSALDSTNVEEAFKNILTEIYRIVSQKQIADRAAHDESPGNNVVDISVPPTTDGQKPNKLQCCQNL
UniProt Q92878: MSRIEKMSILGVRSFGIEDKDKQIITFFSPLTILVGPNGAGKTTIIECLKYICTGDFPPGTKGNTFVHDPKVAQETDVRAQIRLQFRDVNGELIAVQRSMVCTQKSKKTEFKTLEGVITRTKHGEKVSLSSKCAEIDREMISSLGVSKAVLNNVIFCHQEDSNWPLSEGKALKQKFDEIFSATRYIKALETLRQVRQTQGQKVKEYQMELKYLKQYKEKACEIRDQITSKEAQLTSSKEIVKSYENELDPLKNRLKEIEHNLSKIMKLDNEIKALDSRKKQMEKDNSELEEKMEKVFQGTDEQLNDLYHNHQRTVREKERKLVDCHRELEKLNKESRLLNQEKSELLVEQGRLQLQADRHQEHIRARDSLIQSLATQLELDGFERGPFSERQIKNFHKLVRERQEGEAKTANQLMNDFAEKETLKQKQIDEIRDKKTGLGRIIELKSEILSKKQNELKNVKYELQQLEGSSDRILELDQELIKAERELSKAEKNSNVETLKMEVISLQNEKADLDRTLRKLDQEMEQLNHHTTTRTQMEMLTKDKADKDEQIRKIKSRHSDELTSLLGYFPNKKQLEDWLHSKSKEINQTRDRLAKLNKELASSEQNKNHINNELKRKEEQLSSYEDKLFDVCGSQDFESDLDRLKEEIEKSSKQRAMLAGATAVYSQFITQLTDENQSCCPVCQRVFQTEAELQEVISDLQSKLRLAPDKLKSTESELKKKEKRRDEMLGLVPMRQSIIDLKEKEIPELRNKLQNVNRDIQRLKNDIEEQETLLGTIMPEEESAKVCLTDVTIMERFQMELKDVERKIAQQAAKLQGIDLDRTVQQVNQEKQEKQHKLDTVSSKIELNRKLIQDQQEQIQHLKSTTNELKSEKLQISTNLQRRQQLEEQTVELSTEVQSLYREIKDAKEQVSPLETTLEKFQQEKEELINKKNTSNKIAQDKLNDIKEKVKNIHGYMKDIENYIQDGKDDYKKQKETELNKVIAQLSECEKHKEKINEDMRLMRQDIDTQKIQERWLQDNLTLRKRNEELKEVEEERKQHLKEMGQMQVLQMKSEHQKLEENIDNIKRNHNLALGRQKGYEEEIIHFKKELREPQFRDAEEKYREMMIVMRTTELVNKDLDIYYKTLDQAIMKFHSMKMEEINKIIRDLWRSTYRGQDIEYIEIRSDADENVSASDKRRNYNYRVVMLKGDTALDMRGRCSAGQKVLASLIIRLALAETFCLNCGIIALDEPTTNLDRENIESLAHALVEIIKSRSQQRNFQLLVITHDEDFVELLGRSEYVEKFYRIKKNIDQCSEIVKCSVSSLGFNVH
UniProt P11233: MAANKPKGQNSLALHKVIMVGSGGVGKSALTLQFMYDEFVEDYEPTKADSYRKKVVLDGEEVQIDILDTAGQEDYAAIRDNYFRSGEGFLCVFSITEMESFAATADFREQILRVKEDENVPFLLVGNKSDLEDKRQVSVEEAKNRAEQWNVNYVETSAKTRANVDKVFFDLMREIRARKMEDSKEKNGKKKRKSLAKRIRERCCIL
UniProt Q15286: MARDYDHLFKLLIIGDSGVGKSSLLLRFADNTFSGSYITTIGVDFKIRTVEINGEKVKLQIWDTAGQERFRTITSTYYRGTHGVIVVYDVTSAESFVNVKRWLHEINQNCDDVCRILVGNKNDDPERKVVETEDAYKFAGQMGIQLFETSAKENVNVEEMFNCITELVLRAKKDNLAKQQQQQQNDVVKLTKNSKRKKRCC

compound: COc1ccc(Cn2ccc3cc(C)c(C(=O)NO)cc32)cc1; test: dose-dependent thermal stabilisation call (2D-TPP, DLPTP, 10% FDR) (binary (1 = stabilised)); higher = stabilised by the compound; conditions: system: HL-60 intact cells; concentration range 0.04-10 µM
Protocol: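 2D thermal proteome profiling in intact HL-60 cells treated with BRD-3811 (0, 0.04, 0.29, 2, 10 uM) for 90 min at 37 C, then heated 3 min at one of 12 temperatures (42-63.9 C). Soluble protein was quantified by TMT10 MS. The value is the DLPTP call of the paper: dose-dependent thermal stabilisation over all temperatures at 10% FDR (F-test of a dose-response against a flat model); one experiment, one call per tested protein.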

Target	dose-dependent thermal stabilisation call
RAB27A (UniProt P51159)	inactive: 0
RHOT1 (UniProt Q8IXI2)	inactive: 0
RAB22A (UniProt Q9UL26)	inactive: 0
RABL4 (UniProt Q9BW83)	inactive: 0
RHOT2 (UniProt Q8IXI1)	inactive: 0
RABGAP1 (UniProt Q9Y3P9)	inactive: 0
RALB (UniProt P11234)	inactive: 0
R3HCC1 (UniProt Q9Y3T6)	inactive: 0
RAB3D (UniProt O95716)	inactive: 0
RBKS (UniProt Q9H477)	inactive: 0
RAP1B (UniProt P61224)	inactive: 0
REST (UniProt Q13127)	inactive: 0
RHBDD2 (UniProt Q6NTF9)	inactive: 0
RAB12 (UniProt Q6IQ22)	inactive: 0
PUM1 (UniProt Q14671)	inactive: 0
RNF219 (UniProt Q5W0B1)	inactive: 0
PUS1 (UniProt Q9Y606)	inactive: 0
RAB6B (UniProt Q9NRW1)	inactive: 0

Target	dose-dependent thermal stabilisation call
RBBP8 (UniProt Q99708)	inactive: 0
RFC3 (UniProt P40938)	inactive: 0
RAB5A (UniProt P20339)	inactive: 0
RAB11B (UniProt Q15907)	inactive: 0
RBM28 (UniProt Q9NW13)	inactive: 0
RBMS1 (UniProt P29558)	inactive: 0
PVRL1 (UniProt Q15223)	inactive: 0
RNF14 (UniProt Q9UBS8)	inactive: 0
RAG1AP1 (UniProt Q9BRV3)	inactive: 0
RICTOR (UniProt Q6R327)	inactive: 0
RAD50 (UniProt Q92878)	inactive: 0
PVR (UniProt P15151)	inactive: 0
RBBP5 (UniProt Q15291)	inactive: 0
QRSL1 (UniProt Q9H0R6)	inactive: 0
RALA (UniProt P11233)	inactive: 0
RFX1 (UniProt P22670)	inactive: 0
RACGAP1 (UniProt Q9H0H5)	inactive: 0
RAB35 (UniProt Q15286)	inactive: 0

2 records drawn at random from those above, as already listed:
Target	dose-dependent thermal stabilisation call
RAB6B (UniProt Q9NRW1)	inactive: 0
RBBP8 (UniProt Q99708)	inactive: 0
